Measured values: PMC3762332
The exact form of at least one protein or probe is not confirmed. For some of these results: Where a protein sequence is shown, tags need not be part of it.

Amino acid sequences for entries named in this document (tags omitted). A change or cut given only in a name is not applied to a line headed by its entry.
UniProt P20719: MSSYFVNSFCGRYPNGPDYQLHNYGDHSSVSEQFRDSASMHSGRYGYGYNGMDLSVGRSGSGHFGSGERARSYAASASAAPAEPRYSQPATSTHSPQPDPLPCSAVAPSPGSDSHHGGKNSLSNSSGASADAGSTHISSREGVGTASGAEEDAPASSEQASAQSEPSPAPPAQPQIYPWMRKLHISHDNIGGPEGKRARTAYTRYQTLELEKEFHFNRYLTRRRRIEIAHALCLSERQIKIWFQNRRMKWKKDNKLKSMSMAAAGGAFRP
UniProt Q9BWM5: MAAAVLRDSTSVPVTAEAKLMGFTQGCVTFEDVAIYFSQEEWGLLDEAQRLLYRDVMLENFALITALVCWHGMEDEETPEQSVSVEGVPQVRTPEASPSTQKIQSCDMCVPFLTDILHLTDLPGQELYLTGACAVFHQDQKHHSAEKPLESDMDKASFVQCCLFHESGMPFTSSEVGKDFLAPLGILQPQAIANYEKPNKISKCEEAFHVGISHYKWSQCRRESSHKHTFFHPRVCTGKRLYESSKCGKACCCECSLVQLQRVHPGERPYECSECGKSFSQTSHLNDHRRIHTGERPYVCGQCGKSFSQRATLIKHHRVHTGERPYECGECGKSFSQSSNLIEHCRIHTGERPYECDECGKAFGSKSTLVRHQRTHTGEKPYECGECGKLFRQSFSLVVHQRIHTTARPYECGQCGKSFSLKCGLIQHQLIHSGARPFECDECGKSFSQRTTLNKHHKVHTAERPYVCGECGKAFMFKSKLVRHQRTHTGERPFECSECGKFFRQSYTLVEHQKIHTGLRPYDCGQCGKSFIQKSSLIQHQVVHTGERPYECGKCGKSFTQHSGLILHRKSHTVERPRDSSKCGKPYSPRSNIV
UniProt P17035: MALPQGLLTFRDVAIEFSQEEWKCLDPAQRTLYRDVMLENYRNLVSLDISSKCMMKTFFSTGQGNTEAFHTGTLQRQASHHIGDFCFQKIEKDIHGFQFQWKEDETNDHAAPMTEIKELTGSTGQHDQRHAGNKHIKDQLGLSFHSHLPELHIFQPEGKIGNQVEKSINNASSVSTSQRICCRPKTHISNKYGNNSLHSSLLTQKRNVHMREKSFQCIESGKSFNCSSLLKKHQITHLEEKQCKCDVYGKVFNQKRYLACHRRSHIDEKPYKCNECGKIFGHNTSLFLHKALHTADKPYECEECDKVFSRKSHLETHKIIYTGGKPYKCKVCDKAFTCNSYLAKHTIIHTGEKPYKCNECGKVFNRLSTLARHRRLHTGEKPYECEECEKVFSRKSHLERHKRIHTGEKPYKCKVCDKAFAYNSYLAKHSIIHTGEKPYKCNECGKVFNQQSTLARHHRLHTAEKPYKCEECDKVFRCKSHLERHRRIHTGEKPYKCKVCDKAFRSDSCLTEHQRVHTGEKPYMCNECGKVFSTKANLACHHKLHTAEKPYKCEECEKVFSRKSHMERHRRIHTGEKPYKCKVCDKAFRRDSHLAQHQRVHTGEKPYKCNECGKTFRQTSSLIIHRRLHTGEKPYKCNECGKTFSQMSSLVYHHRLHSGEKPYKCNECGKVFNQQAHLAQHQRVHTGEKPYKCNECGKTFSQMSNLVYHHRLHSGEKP
UniProt O00716: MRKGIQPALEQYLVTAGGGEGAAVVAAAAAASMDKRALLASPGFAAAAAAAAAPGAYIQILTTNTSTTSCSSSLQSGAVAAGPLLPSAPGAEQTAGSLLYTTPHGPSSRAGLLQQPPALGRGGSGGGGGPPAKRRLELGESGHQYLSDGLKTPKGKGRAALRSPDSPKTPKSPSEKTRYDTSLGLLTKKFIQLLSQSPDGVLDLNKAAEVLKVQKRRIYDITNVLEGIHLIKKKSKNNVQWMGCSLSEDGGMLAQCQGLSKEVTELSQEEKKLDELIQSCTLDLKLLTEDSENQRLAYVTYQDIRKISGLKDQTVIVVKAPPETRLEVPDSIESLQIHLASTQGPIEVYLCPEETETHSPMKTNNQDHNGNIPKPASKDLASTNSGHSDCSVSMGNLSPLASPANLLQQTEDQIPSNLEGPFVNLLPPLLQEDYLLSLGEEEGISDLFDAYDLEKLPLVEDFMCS
UniProt P43694: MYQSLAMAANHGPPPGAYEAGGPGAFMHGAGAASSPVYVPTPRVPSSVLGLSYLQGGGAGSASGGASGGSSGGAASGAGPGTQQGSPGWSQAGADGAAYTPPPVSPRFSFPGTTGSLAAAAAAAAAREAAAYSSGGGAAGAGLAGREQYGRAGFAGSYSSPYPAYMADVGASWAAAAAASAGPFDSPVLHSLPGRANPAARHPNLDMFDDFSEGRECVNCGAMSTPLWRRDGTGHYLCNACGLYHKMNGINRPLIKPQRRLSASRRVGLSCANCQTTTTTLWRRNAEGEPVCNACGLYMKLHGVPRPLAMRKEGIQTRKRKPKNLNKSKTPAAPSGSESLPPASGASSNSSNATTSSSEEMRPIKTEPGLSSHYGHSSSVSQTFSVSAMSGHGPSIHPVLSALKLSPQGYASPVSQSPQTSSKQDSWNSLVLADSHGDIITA
UniProt P37231: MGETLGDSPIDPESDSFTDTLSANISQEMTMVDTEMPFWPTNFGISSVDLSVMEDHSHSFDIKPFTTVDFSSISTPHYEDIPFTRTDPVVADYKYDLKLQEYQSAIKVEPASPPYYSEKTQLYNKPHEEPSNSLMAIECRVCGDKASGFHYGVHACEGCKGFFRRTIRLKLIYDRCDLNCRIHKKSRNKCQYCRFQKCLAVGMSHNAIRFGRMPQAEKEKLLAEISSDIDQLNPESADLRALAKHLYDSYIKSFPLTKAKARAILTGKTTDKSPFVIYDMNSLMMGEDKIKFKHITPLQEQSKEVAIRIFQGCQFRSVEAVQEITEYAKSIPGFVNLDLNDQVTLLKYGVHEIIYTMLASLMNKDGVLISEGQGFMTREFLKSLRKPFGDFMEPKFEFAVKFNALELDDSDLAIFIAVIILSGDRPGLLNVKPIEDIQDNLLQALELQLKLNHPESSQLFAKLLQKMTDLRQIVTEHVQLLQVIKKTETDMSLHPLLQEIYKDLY
UniProt P19793: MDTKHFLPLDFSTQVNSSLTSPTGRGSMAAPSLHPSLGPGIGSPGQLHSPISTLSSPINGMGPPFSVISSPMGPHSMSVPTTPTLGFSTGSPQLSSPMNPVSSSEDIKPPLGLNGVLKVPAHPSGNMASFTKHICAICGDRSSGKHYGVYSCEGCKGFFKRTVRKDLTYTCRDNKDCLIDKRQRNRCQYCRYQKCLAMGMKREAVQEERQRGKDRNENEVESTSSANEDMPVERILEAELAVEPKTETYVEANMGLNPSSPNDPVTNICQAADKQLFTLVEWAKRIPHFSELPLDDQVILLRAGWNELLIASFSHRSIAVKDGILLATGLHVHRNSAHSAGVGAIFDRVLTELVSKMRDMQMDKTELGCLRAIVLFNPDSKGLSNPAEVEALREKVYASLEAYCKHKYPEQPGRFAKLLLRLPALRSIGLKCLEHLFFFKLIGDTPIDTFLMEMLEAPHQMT
UniProt Q8NC26: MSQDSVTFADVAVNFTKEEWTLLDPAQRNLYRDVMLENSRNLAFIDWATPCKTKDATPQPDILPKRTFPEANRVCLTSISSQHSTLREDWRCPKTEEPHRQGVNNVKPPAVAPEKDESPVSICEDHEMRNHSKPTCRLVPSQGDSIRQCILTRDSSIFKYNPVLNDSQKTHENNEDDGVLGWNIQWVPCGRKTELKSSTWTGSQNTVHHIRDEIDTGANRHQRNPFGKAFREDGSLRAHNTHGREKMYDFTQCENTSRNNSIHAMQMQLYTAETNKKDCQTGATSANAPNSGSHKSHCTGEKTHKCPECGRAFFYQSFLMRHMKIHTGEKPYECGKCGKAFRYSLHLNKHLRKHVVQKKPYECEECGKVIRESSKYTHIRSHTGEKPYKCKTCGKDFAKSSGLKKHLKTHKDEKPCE
UniProt P17026: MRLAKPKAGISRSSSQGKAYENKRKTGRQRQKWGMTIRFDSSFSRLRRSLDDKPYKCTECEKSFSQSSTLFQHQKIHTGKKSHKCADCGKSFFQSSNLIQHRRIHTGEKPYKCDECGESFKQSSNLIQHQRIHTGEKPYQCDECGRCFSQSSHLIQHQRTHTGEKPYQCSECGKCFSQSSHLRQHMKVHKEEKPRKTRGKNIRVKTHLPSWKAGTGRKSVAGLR
UniProt P23771: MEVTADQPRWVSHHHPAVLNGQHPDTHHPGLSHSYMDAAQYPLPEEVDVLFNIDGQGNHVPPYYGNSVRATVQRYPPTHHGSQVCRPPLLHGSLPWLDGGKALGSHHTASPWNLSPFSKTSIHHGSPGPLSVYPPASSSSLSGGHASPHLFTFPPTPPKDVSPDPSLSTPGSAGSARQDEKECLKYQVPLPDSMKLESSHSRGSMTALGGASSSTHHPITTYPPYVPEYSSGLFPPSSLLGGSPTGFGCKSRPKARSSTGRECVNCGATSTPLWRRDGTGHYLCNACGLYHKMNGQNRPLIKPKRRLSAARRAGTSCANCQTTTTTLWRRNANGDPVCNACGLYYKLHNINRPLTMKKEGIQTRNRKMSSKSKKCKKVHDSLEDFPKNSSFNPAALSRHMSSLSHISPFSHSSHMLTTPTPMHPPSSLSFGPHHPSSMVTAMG
UniProt P31269, whole entry: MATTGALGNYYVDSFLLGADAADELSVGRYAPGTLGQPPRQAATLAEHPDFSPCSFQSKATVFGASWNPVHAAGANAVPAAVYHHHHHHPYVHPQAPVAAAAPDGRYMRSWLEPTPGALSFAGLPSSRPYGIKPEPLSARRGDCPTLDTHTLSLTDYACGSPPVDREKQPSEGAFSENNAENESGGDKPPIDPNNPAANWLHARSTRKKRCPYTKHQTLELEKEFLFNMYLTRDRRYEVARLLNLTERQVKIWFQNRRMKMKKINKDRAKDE
UniProt Q14145, whole entry: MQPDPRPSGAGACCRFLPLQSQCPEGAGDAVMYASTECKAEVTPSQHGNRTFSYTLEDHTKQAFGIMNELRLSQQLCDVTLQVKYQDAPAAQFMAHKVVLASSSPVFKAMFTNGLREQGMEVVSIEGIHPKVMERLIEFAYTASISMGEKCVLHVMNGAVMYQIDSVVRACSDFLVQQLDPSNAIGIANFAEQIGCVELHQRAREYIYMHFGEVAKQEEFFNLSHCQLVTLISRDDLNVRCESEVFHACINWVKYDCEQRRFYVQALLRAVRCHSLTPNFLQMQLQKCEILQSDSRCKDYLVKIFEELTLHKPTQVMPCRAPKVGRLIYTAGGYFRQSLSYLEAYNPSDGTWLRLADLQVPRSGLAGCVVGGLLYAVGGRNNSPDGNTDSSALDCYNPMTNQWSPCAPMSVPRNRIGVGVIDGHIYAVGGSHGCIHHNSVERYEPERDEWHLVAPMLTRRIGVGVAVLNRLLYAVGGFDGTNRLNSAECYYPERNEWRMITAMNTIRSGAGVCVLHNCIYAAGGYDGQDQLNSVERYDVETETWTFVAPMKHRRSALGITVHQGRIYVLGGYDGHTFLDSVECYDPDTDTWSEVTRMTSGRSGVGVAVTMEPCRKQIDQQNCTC

What was measured:
Assay in all cases: protein microarray
Settings in all cases: 10-fold cold unmethylated competitor; 5mC at CpG (SssI, both strands); recombinant protein; protein details: GST (N-terminal); label: Cy5
[1] = molecular target: T1, NRF1 (Homo sapiens) (UniProt Q16656)
T1 sequence (looked up, limits assumed): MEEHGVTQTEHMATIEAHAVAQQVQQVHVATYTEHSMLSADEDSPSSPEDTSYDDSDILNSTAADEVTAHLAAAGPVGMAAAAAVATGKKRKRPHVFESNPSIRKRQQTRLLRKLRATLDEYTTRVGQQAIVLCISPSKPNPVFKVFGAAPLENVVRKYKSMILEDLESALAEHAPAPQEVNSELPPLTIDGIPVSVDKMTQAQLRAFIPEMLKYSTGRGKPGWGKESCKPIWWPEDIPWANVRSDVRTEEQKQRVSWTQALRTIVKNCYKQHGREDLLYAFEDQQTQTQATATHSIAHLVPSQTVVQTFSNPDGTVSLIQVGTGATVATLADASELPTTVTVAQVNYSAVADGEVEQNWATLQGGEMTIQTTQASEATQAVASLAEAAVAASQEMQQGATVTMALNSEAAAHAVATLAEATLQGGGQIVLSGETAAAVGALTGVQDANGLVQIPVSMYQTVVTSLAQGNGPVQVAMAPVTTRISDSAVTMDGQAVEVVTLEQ

[2] = molecular target: HOXA5 (Homo sapiens) (UniProt P20719)
[3] = molecular target: ZNF416 (Homo sapiens) (UniProt Q9BWM5)
[4] = molecular target: ZNF28 (Homo sapiens) (UniProt P17035)
[5] = molecular target: E2F3 (Homo sapiens) (UniProt O00716)
[6] = molecular target: GATA4 (Homo sapiens) (UniProt P43694)
[7] = molecular target: PPARG (Homo sapiens) (UniProt P37231)
[8] = molecular target: RXRA (Homo sapiens) (UniProt P19793)
[9] = molecular target: ZNF114 (Homo sapiens) (UniProt Q8NC26)
[10] = molecular target: T2, BCL3 (Homo sapiens) (UniProt P20749)
T2 sequence (looked up, limits assumed): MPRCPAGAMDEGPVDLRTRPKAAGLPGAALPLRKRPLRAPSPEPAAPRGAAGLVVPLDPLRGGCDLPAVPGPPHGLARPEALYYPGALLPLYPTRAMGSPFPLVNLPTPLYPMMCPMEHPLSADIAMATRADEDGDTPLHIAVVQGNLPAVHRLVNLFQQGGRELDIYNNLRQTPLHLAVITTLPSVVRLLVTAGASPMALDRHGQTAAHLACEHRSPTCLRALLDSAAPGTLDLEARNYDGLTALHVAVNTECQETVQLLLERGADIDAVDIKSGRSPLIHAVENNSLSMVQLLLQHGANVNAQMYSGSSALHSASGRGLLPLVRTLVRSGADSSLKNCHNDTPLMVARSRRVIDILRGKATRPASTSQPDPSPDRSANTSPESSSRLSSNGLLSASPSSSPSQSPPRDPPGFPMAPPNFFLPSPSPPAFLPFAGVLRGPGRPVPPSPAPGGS

[11] = molecular target: T3, SCAPER (Homo sapiens) (UniProt Q9BY12)
T3 sequence (looked up, limits assumed): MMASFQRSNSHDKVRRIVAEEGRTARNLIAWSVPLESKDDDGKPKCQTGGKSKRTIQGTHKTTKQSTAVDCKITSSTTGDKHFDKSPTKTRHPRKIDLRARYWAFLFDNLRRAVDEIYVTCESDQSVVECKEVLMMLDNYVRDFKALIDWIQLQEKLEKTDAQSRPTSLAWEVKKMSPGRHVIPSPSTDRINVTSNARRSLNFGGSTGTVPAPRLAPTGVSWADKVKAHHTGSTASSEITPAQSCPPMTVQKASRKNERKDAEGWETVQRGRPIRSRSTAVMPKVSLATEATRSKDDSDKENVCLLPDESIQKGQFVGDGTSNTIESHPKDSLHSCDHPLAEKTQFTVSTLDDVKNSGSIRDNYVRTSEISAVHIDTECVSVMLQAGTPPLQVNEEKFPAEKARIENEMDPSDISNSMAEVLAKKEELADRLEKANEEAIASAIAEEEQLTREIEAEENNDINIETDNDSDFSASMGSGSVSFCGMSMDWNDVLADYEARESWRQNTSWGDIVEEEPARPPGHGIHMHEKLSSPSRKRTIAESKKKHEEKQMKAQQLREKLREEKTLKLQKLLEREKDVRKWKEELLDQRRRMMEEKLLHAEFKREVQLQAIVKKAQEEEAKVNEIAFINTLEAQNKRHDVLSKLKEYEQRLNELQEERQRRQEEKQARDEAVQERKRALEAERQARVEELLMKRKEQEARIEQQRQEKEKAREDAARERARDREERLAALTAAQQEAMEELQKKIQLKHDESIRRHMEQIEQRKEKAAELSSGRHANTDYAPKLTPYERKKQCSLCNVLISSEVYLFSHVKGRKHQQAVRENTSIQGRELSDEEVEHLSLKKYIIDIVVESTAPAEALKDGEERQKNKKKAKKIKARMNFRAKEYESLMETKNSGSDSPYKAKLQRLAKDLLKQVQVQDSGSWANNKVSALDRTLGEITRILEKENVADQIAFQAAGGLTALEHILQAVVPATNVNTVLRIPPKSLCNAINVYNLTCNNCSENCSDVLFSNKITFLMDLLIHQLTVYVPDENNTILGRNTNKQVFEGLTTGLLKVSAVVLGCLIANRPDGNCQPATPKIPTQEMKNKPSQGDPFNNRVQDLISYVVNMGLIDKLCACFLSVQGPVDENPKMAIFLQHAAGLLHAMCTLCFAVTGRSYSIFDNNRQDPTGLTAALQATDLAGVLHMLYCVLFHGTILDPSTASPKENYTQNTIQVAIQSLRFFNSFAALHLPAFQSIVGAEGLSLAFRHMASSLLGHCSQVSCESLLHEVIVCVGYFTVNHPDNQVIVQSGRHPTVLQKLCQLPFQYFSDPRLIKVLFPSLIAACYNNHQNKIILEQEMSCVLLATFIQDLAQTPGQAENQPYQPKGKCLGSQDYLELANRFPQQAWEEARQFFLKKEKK

[12] = molecular target: T4, RNF138 (Homo sapiens) (UniProt Q8WVD3)
T4 sequence (looked up, limits assumed): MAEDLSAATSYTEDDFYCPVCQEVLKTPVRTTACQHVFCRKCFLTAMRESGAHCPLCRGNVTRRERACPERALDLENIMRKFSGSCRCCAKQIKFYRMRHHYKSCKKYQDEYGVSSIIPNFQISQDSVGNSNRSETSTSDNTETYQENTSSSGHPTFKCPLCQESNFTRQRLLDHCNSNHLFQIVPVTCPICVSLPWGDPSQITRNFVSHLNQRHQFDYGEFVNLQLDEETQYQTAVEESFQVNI

[13] = molecular target: T5, ATF6B (Homo sapiens) (UniProt Q99941)
T5 sequence (looked up, limits assumed): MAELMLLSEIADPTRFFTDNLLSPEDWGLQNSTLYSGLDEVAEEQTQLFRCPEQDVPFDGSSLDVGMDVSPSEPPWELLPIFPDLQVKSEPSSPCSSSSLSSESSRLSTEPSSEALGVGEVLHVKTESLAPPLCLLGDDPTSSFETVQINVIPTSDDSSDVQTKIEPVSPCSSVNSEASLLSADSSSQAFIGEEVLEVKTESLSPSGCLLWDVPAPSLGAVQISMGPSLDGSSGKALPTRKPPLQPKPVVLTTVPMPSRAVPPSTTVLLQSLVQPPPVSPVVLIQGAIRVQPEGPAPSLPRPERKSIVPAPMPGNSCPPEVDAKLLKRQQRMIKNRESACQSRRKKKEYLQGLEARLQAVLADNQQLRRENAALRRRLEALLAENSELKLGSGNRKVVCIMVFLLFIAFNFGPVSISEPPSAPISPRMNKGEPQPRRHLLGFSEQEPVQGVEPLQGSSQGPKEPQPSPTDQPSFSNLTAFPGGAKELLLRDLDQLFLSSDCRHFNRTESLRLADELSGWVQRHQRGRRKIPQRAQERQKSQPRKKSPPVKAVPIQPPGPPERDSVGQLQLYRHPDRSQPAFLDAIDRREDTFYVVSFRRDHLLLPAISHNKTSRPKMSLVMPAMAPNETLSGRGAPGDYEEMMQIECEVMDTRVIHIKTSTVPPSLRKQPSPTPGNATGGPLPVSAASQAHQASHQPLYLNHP

[14] = molecular target: ZNF22 (Homo sapiens) (UniProt P17026)
[15] = molecular target: GATA3 (Homo sapiens) (UniProt P23771)
[16] = molecular target: HOXA9 (Homo sapiens) (UniProt P31269)
[17] = molecular target: KEAP1 (Homo sapiens) (UniProt Q14145)
[18] = molecular target: T6, SMAD4 (Homo sapiens) (UniProt Q13485)
T6 sequence (looked up, limits assumed): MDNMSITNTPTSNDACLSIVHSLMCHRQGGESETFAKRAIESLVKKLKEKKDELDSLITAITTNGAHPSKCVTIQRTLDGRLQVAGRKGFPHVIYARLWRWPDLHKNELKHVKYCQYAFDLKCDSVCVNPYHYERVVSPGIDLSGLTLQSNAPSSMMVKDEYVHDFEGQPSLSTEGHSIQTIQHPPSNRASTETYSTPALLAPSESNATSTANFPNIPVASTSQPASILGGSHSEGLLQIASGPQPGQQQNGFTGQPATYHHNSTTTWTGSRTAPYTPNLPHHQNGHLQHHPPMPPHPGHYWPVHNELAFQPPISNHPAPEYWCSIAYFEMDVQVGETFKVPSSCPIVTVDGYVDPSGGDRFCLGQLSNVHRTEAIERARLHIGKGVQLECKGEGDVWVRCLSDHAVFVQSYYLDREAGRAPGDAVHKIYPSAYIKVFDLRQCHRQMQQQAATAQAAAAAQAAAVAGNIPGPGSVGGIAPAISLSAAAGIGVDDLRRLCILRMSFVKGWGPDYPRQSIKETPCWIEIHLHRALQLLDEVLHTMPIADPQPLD

Measured: binding result

CTCCGCCCAAACTCCGCCCCCCTATAGTGAGTGCTATTA (double strand) [M67]
binds: [1] | [2] | [3] | [4] | [5] | [6] | [7] | [8] | [9] | [10] | [11] | [12]

CGGCTCCTTTCGGCTCCCCCTATAGTGAGTGCTATTA (double strand) [M298]
binds: [13] | [9] | [14]

ACGTGCAGTTTACGTGCAGCCCTATAGTGAGTGCTATTA (double strand) [M452]
binds: [15] | [1] | [16] | [2] | [17] | [3] | [4] | [5] | [18] | [6] | [7] | [8] | [9] | [10] | [11] | [12]

AGCCCCGTTTAGCCCCGCCCTATAGTGAGTGCTATTA (double strand) [M299]
binds: [13] | [9] | [14]
